# Reference: patent publication US20240199763A1, “CONFORMATION SWITCHING NANOSTRUCTURES” (TECHNISCHE UNIVERSITÄT MÜNCHEN, priority 2021, published 2024)
# At least one compound was matched to its structure with a doubt left.
# Test system: anti-Dig stapled shells packed with viral payload
# Experiment: Antigen-triggered release of a viral payload (HBV core capsids) from anti-Dig stapled shells, TEM
# Settings: spring-loading conditions (12 mM MgCl2); soluble Digoxigenin antigens added
smiles,measurement,value
C[C@]12CC[C@H](O)C[C@H]1CC[C@@H]1[C@@H]2C[C@@H](O)[C@]2(C)[C@@H](C3=CC(=O)OC3)CC[C@]12O [Digoxigenin],release of viral payload on shell disassembly,leading to the release of the viral payload
